In publication PMC10951710:
No constants are given. Whether binding was seen depends on the method and setting. Binding seen in cells or lysates may run through a third protein. These calls come from enrichment with a bait or labelling near it, and not all partners need be listed. Tags and fused reporters may be left off the sequences shown.

T1: MKK2-TurboID-Hisx8 fusion protein (mitogen-activated protein kinase kinase 2 fused to TurboID) (Arabidopsis thaliana) (UniProt Q9S7U9)
T1 sequence: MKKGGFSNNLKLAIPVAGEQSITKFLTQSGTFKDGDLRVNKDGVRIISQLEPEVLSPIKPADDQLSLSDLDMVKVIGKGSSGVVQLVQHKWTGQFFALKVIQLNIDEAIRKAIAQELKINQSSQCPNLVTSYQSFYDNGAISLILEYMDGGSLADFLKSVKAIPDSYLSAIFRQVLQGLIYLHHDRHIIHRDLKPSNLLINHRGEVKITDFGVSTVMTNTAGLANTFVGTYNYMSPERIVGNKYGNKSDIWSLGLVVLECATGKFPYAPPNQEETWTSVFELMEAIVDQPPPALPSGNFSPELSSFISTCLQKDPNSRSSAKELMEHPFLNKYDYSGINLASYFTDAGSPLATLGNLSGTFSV


target: T1, MKK2-TurboID-Hisx8 fusion protein (mitogen-activated protein kinase kinase 2 fused to TurboID) (Arabidopsis thaliana); assay: proximity labelling; in planta TurboID labelling in MKK1-ID or MKK2-ID transgenic Arabidopsis against TurboID-only (ID) plants; 150 uM biotin and 5 uM estradiol in the medium, 5 min wind of 4 m/sec; denaturing extraction, streptavidin enrichment of biotinylproteins and biotinylpeptides, LC-MS/MS, iBAQ quantitation; hits at log2-ratio >= 1.58 and BH-FDR <= 0.05

binding | Binder
binds | SWAP (Suppressor-of-White-APricot)/surp domain-containing protein (TGH) (protein, UniProt Q8GXN9 1-930) MGSDEEDFVFHGTPIEREEEIASRKKKAVAGASGNLRTLPAWKQEVTDEEGRRRFHGAFTGGYSAGYYNTVGSKEGWAPQSFTSSRQNRAGARKQSISDFLDEDEKADMEGKSLSASSQFDTFGFTAAEHSRKHAEKEQHERPSAIPGPVPDELVAPVSESIGVKLLLKMGWRRGHSIKEVRASSDARREARKAFLAFYTDENTKETPDSLVSETEVETSLGEDIKISESTPVYVLNPKQDLHGLGYDPFKHAPEFREKKRSRMSANKEVGFRKPLSMKESLFGPKSGKIAPGFGIGALEELDVEDEDVYAGYDFDQTYVIEDEQPARQSNDNRLRLTSKEHDVLPGFGAAKNSDYSMERFNPPIIPKDFVARHKFSGPLEAETKPTVSAPPEVPPPADNNLKLLIEGFATFVSRCGKLYEDLSREKNQSNQLFDFLREGNGHDYYARRLWEEQQKRKDQSKLTLDVKVSPTVQKMTAETRGSLLGEKPLQRSLKETDTSASSGGSFQFPTNLSDTFTKSASSQEAADAVKPFKDDPAKQERFEQFLKEKYKGGLRTTDSNRVNSMSESARAQERLDFEAAAEAIEKGKAYKEVRRATEQPLDFLAGGLQFTSGGTEQIKDTGVVDMKSSKTYPKREEFQWRPSPLLCKRFDLPDPFMGKLPPAPRARNKMDSLVFLPDTVKAASARQVSESQVPKKETSIEEPEVEVEVENVERPVDLYKAIFSDDSEDDEDQPMNGKIQEGQEKKNEAAATTLNRLIAGDFLESLGKELGFEVPMEEEIKSRSKPEDSSDKRLDRPGLKEKVEEKTSSLTLGSEEEKSRKKREKSPGKRSGGNDLSSSESSGDERRRKRYNKKDRHRNDSESDSSSDYHSRDKQGSRSRSKRRESSREKRSSHKKHSKHRRTKKSSSSRYSSDEEQKESRREKKRRRD
binds | Ankyrin repeat family protein/BTB/POZ domain-containing protein (BOP2) (protein, UniProt Q9ZVC2 1-491) MSNLEESLRSLSLDFLNLLINGQAFSDVTFSVEGRLVHAHRCILAARSLFFRKFFCGTDSPQPVTGIDPTQHGSVPASPTRGSTAPAGIIPVNSVGYEVFLLLLQFLYSGQVSIVPQKHEPRPNCGERGCWHTHCSAAVDLALDTLAASRYFGVEQLALLTQKQLASMVEKASIEDVMKVLIASRKQDMHQLWTTCSHLVAKSGLPPEILAKHLPIDVVTKIEELRLKSSIARRSLMPHNHHHDLSVAQDLEDQKIRRMRRALDSSDVELVKLMVMGEGLNLDESLALHYAVESCSREVVKALLELGAADVNYPAGPAGKTPLHIAAEMVSPDMVAVLLDHHADPNVRTVGGITPLDILRTLTSDFLFKGAVPGLTHIEPNKLRLCLELVQSAAMVISREEGNNSNNQNNDNNTGIYPHMNEEHNSGSSGGSNNNLDSRLVYLNLGAGTGQMGPGRDQGDDHNSQREGMSRHHHHHQDPSTMYHHHHQHHF
binds | A member of the Arabidopsis LIM proteins: a family of actin bundlers with distinct expression patterns (WLIM2A) (protein, UniProt O04193 1-200) MSFTGTQQKCRACEKTVYPVELLSADGISYHKACFKCSHCKSRLQLSNYSSMEGVVYCRPHFEQLFKESGSFSKNFQSPAKPLTDKPTPELNRTPSRLAGMFSGTQDKCATCTKTVYPIEKVTVESQCYHKSCFKCSHGGCPISPSNYAALEGILYCKHHFAQLFKEKGSYNHLIKSASIKRATAAATAAAAAVAAVPES
binds | Oligouridylate-binding protein 1A (UBP1A) (protein, UniProt Q9SYG4 1-426) MQNQRLIKQQQQQQQQQHQQAMIQQAMMQQHPSLYHPGVMAPPQMEPLPSGNLPPGFDPTTCRSVYAGNIHTQVTEILLQEIFASTGPIESCKLIRKDKSSYGFVHYFDRRCASMAIMTLNGRHIFGQPMKVNWAYATGQREDTSSHFNIFVGDLSPEVTDAALFDSFSAFNSCSDARVMWDQKTGRSRGFGFVSFRNQQDAQTAINEMNGKWVSSRQIRCNWATKGATFGEDKHSSDGKSVVELTNGSSEDGRELSNEDAPENNPQFTTVYVGNLSPEVTQLDLHRLFYTLGAGVIEEVRVQRDKGFGFVRYNTHDEAALAIQMGNAQPFLFSRQIRCSWGNKPTPSGTASNPLPPPAPASVPSLSAMDLLAYERQLALAKMHPQAQHSLRQAGLGVNVAGGTAAMYDGGYQNVAAAHQQLMYYQ
binds | Alfin-like 1 (AL1) (protein, UniProt Q9FFF5 1-241) MAAESSNPRTVEEIFKDFSGRRSGFLRALSVDVDKFYSLCDPEMENLCLYGHPNGTWEVNLPAEEVPPELPEPALGINFARDGMQRKDWLSLVAVHSDCWLLSVSSYFGARLNRNERKRLFSLINDLPTLFEVVTGRKPIKDGKPSMDLGSKSRNGVKRSIEGQTKSTPKLMEESYEDEDDEHGDTLCGSCGGNYTNDEFWICCDVCERWYHGKCVKITPAKAESIKQYKCPSCCTKKGRQ
binds | CAP-binding protein 20 (ATCBP20) (protein, UniProt Q9XFD1 1-257) MASLFKEQAKLSAYRDRRFSGTQEEFDEALRASTTVYIGNVSFYTTEEQLYELFSRAGEIKKIIMGLDKNTKTPCGFCFVLFYSREDTEDAVKYISGTILDDRPIRVDFDWGFQEGRQWGRGRSGGQVRDEYRTDYDPARGGYGKLVQKELEAQRQLVDYGTGSLGAYPQAAPTNYGNGRRGGGNYGQGGQNRHGRGDYHRKRQRDDDRYGRDNSRRNTDHESRRDTDSDMRPEKNPRFRESGDSDDDGEDDRKRRS
binds | One of the zinc finger-containing glycine-rich RNA-binding proteins involved in cold tolerance (ATRZ-1C) (protein, UniProt Q8RWN5 1-310) MAAKEGSRIFVGGLSPEVTDRDLERAFSRFGDILDCQIMLERDTGRSRGFGFITFADRRAMDESIREMHGRDFGDRVISVNRAEPKLGRDDGESHGSRGGRDSGYSIAGKGSFGGGGGGGGRVGEDECFKCGRVGHWARDCPSAGGGRGGPVGGFSSRASAYGGSDGRVDRYADRDRYVDRERYIDDRYDGAARYGARDRFDSREAYIPRDRYASDRYAAPADRFAGGDRYSRGSDRYPPGSYDKARSFERDIAPSAGSDRYGGGRAGGPIRGGGEEGRGFRSRAGAPYERPSRSGGGGAYPSSSTFDRY
binds | Pleiotropic regulatory locus 1 (PRL1) (protein, UniProt Q42384 1-486) MPAPTTEIEPIEAQSLKKLSLKSLKRSLELFSPVHGQFPPPDPEAKQIRLSHKMKVAFGGVEPVVSQPPRQPDRINEQPGPSNALSLAAPEGSKSTQKGATESAIVVGPTLLRPILPKGLNYTGSSGKSTTIIPANVSSYQRNLSTAALMERIPSRWPRPEWHAPWKNYRVIQGHLGWVRSVAFDPSNEWFCTGSADRTIKIWDVATGVLKLTLTGHIEQVRGLAVSNRHTYMFSAGDDKQVKCWDLEQNKVIRSYHGHLSGVYCLALHPTLDVLLTGGRDSVCRVWDIRTKMQIFALSGHDNTVCSVFTRPTDPQVVTGSHDTTIKFWDLRYGKTMSTLTHHKKSVRAMTLHPKENAFASASADNTKKFSLPKGEFCHNMLSQQKTIINAMAVNEDGVMVTGGDNGSIWFWDWKSGHSFQQSETIVQPGSLESEAGIYAACYDNTGSRLVTCEADKTIKMWKEDENATPETHPINFKPPKEIRRF
binds | GCIP-interacting family protein (ATSYF2) (protein, UniProt Q8LB80 1-298) MVSERRVHPDCINASNPYHECVEYCFKKIAEAKARFEKQNTGLAKVHEQTREPLDDKRIEEDSSEEEEEEEDNQEPQVDVTQLTGRQKKLFELRLKMNEARKSNQTDVGSEKKKMEAPTETKGISKQKWLEGRKKKIGKLLDANGLDMTQAYMLDTQEAAESKYKKWEKEPTPAGWDVFNQKTLYNAYKKRTKNIQVDLEEYNRMRAADPEFYREASSLQYGKAPKTSQDKIDKMAKELLDREQKRQEFSRRRKFREEKDIDSINDRNEHFNKKIERAFGKYTLEIKNNLERGTALPD
binds | AUG1, likely to be in an augmin-like complex with AUG3 (ATAUG1) (protein, UniProt F4IK01 1-299) MSDVTGDLAAVSEAKGGSDAARISEVKAWLTSQFEAVGKEVPNFEYTHRSITHLYNLATASQAKSQAATIVANDFRLKASEYRAQAARIREILESAGMSQESLPSNVVSSAQVLANVANLLNIRDTELSSFLVAMGDISLRKTGVEEKRAKAQKESNALLDYTRKAIQRLTYLKKILAQLEDDVVPCESQMENWKTNLEVMAVKEEQYIQQYKKYEQMLLNRVGYTPKISHRELVEMAEHRKELDKMTKPVLDTLRSYQDLPPDKALAALAIEDKKRQFTAAEKYLEEVLQSALETNDE
binds | N-terminal nucleophile aminohydrolases (Ntn hydrolases) superfamily protein (PBF1) (protein, UniProt P42742 1-223) MTKQHANWSPYDNNGGTCVAIAGSDYCVIAADTRMSTGYSILSRDYSKIHKLADRAVLSSSGFQADVKALQKVLKSRHLIYQHQHNKQMSCPAMAQLLSNTLYFKRFFPYYAFNVLGGLDEEGKGCVFTYDAVGSYERVGYGAQGSGSTLIMPFLDNQLKSPSPLLLPKQDSNTPLSEAEAVDLVKTVFASATERDIYTGDKLEIMILKADGIKTELMDLRKD
binds | BEL1-like homeodomain 4 (BLH4) (protein, UniProt Q94KL5 1-627) MGLATTTSSMSQDYHHHQGIFSFSNGFHRSSSTTHQEEVDESAVVSGAQIPVYETAGMLSEMFAYPGGGGGGSGGEILDQSTKQLLEQQNRHNNNNNSTLHMLLPNHHQGFAFTDENTMQPQQQQHFTWPSSSSDHHQNRDMIGTVHVEGGKGLSLSLSSSLAAAKAEEYRSIYCAAVDGTSSSSNASAHHHQFNQFKNLLLENSSSQHHHHQVVGHFGSSSSSPMAASSSIGGIYTLRNSKYTKPAQELLEEFCSVGRGHFKKNKLSRNNSNPNTTGGGGGGGSSSSAGTANDSPPLSPADRIEHQRRKVKLLSMLEEVDRRYNHYCEQMQMVVNSFDQVMGYGAAVPYTTLAQKAMSRHFRCLKDAVAVQLKRSCELLGDKEAAGAASSGLTKGETPRLRLLEQSLRQQRAFHHMGMMEQEAWRPQRGLPERSVNILRAWLFEHFLNPYPSDADKHLLARQTGLSRNQVSNWFINARVRLWKPMVEEMYQQEAKEREEAEEENENQQQQRRQQQTNNNDTKPNNNENNFTVITAQTPTTMTSTHHENDSSFLSSVAAASHGGSDAFTVATCQQDVSDFHVDGDGVNVIRFGTKQTGDVSLTLGLRHSGNIPDKNTSFSVRDFGDF
binds | SNF7 family protein (VPS46.2) (protein, UniProt Q9SSM4 1-203) MGNTDKLMNQIFDLKFTSKSLQRQSRKCEKEEKAEKLKVKKAIEKGNMDGARIYAENAIRKRSEQMNYLRLASRLDAVVARLDTQAKMTTITKSMTNIVKSLESSLATGNLQKMSETMDSFEKQFVNMEVQAEFMENAMAGSTSLSTPEGEVNSLMQQVADDYGLEVSVGLPQPAGHAIPTKTEEKVDEDDLSRRLAELKARG
